PubChem BioAssay AID686938, Drosophila RNAi Screening Center, 2013
In all, the deposit lists about 23,000 reagents; shown is an unselected part of those that have a named target and a result. In the full data, 75 (0.33%) are marked active. 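Raw plate signals without normalisation; calls rest on plate z-scores that were not deposited; ratio present for only 364 wells.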 A plus sign joins genes that one reagent is predicted to hit. Reagent sequences are not shown. Not stated in the record: the dose of the treatment.

Test: 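Knock-downs reducing store-operated calcium influx in Drosophila cells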 (primary screen)
Cell system: Drosophila S2R+ cells
Reagent: long dsRNA against Drosophila genes, about 0.25 µg dsRNA per well, roughly 10,000 cells
Time to read-out: 5 days of knock-down before the calcium assay
Challenge: thapsigargin (SERCA pump blocker) to empty calcium stores; entry signal taken 4 min after adding it
Measurement: 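Duplicate raw fluo-4 intensities per well from a plate reader, at rest and four minutes after thapsigargin emptied calcium stores; entry-to-rest ratio filled for only some wells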
Direction: calcium entry signal: higher = stronger calcium signal after store depletion; entry to resting ratio: higher = more calcium entry relative to resting level; resting calcium signal: higher = higher resting calcium signal
Active means: 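Called when the plate z-score of the entry-to-rest ratio, mean of duplicates, falls below −3; wells with low overall dye signal (Fmax z below −2) or more than five off-targets excluded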
Calls: active = strongly reduced calcium entry; inactive = no strong reduction

no.	gene	DRSC id	calcium entry signal, replicate 1 (fluorescence units)	calcium entry signal, replicate 2 (fluorescence units)	entry to resting ratio	resting calcium signal, replicate 1 (fluorescence units)	resting calcium signal, replicate 2 (fluorescence units)	Call
1	CG14989	DRSC08448	4.48e7	2.81e7		3.10e7	1.33e7	inactive
2	CG2663	DRSC12314	6.48e7	5.21e7		2.54e7	2.36e7	inactive
3	AstC-R1	DRSC10799	3.20e7	4.87e7		1.66e7	1.73e7	inactive
4	CG14013	DRSC02344	2.48e7	2.92e7		1.24e7	1.36e7	inactive
5	CG31740	DRSC01619	3.53e7	3.05e7		1.86e7	1.62e7	inactive
6	CG13078	DRSC02182	4.50e7	5.30e7		2.16e7	2.26e7	inactive
7	CG32633	DRSC18987	1.69e7	2.53e7		9.21e6	1.09e7	inactive
8	Uba1	DRSC07567	2.53e7	2.51e7		1.59e7	1.71e7	inactive
9	Coq7 + shf	DRSC18448	3.01e7	4.45e7		1.49e7	2.02e7	inactive
10	CG12849	DRSC04129	3.68e7	5.02e7		1.96e7	2.14e7	inactive
11	pirk	DRSC04269	4.05e7	4.70e7		1.92e7	2.09e7	inactive
12	CG31677	DRSC22023	2.46e7	4.52e7		1.22e7	2.08e7	inactive
13	CG7878	DRSC16330	4.87e7	4.05e7		2.64e7	2.15e7	inactive
14	fog	DRSC20646	3.43e7	4.00e7		1.60e7	1.60e7	inactive
15	NT1	DRSC08530	2.26e7	3.19e7		1.10e7	1.36e7	inactive
16	NT1	DRSC22895	4.44e7	3.30e7		2.19e7	1.47e7	inactive
17	CG8508	DRSC16436	3.99e7	4.64e7		1.61e7	2.00e7	inactive
18	CG42720 (retired record)	DRSC22549	3.49e7	3.50e7		1.76e7	1.54e7	inactive
19	CG33234	DRSC07994	4.89e7	4.14e7		2.31e7	1.74e7	inactive
20	dsx-c73A	DRSC09435	4.73e7	4.17e7		2.06e7	2.18e7	inactive
21	dsx-c73A	DRSC09914	3.73e7	5.02e7		1.93e7	1.99e7	inactive
22	dsx-c73A	DRSC10429	3.87e7	5.47e7		1.85e7	2.12e7	inactive
23	CG12158	DRSC22933	3.81e7	2.94e7		1.90e7	1.43e7	inactive
24	Pex7	DRSC10651	3.25e7	5.14e7		1.59e7	2.24e7	inactive
25	ph-p	DRSC18820	3.70e7	5.16e7	2.1	1.78e7	1.98e7	inactive
26	Pp1-Y1	DRSC20896	4.78e7	3.05e7		2.17e7	1.48e7	inactive
27	CG16713	DRSC00477	3.66e7	3.36e7		1.65e7	1.66e7	inactive
28	rg	DRSC17377	3.62e7	3.88e7		2.16e7	1.65e7	inactive
29	rg	DRSC17726	2.87e7	2.04e7		1.21e7	9.86e6	inactive
30	rg	DRSC18049	3.61e7	3.03e7		1.66e7	1.56e7	inactive
31	Tapdelta	DRSC05946	2.58e7	3.30e7		1.19e7	1.56e7	inactive
32	Keap1	DRSC15528	4.58e7	3.50e7		2.20e7	1.72e7	inactive
33	CG6683	DRSC10694	4.03e7	3.33e7		2.76e7	1.39e7	inactive
34	CG33474	DRSC05218	5.46e7	3.25e7		3.30e7	1.31e7	inactive
35	CG9426	DRSC03219	3.74e7	2.86e7		1.91e7	1.39e7	inactive
36	GlyRS	DRSC10711	3.06e7	4.30e7		1.41e7	2.71e7	inactive
37	galla-1	DRSC05987	2.87e7	3.11e7		1.43e7	1.58e7	inactive
38	CG8419	DRSC03087	4.47e7	6.46e7		1.88e7	2.59e7	inactive
39	Pp2A-29B	DRSC03400	2.64e7	4.70e7		1.31e7	2.03e7	inactive
40	7B2	DRSC11991	3.28e7	2.47e7		1.73e7	1.34e7	inactive
41	eEF1alpha1	DRSC07421	1.78e7	1.59e7		1.09e7	8.61e6	inactive
42	Rrp45	DRSC20198	2.14e7	2.12e7		1.45e7	1.36e7	inactive
43	Sugb	DRSC10815	4.78e7	2.82e7		3.23e7	1.38e7	inactive
44	Pfdn6	DRSC10915	2.69e7	4.02e7		1.32e7	1.77e7	inactive
45	CG4404	DRSC19897	3.78e7	5.04e7		2.12e7	2.41e7	inactive
46	IP3K1 + hpRNA:CR18854	DRSC23313	3.95e7	4.92e7		1.62e7	1.99e7	inactive
47	TMEM216	DRSC16378	4.50e7	4.05e7		2.28e7	1.80e7	inactive
48	eIF5	DRSC20165	2.97e7	3.21e7		1.72e7	1.69e7	inactive
49	CG15127	DRSC05802	2.49e7	2.74e7		1.22e7	1.39e7	inactive
50	CG15127	DRSC06549	5.49e7	5.49e7		2.31e7	2.53e7	inactive
51	Or85a	DRSC16764	3.25e7	2.75e7		1.67e7	1.44e7	inactive
52	karr	DRSC20681	4.73e7	4.88e7		2.39e7	2.26e7	inactive
53	aru	DRSC00802	2.60e7	3.03e7		1.27e7	1.42e7	inactive
54	aru	DRSC22019	2.78e7	7.38e7		1.29e7	3.12e7	inactive
55	Tmlh	DRSC15563	3.61e7	4.54e7		5.63e7	2.02e7	inactive
56	CG30287	DRSC03875	3.67e7	7.08e7		1.66e7	2.77e7	inactive
57	Ir41a	DRSC04730	2.88e7	5.46e7		1.48e7	2.25e7	inactive
58	Ir41a	DRSC04875	3.31e7	4.40e7		1.81e7	1.94e7	inactive
59	CG43345 + CG43346	DRSC03164	3.58e7			1.72e7		inactive
60	Vha36-1	DRSC07098	2.72e7	2.87e7		1.48e7	1.60e7	inactive
61	CG43322	DRSC02280	3.58e7	4.19e7		1.75e7	1.97e7	inactive
62	Nep2	DRSC12126	3.29e7	4.20e7		1.49e7	2.52e7	inactive
63	Nep2	DRSC21398	4.15e7	3.61e7		2.26e7	1.65e7	inactive
64	Faf2	DRSC03325	3.87e7			1.63e7		inactive
65	CG4891	DRSC01936	4.38e7			2.07e7		inactive
66	PAN3	DRSC08190	3.54e7	2.77e7		2.54e7	1.19e7	inactive
67	CG11426	DRSC11658	2.62e7	5.09e7		1.36e7	2.24e7	inactive
68	slgA	DRSC20586	3.64e7	4.50e7		1.66e7	2.12e7	inactive
69	CG5359	DRSC15780	2.15e7	2.59e7		1.37e7	1.34e7	inactive
70	CG43052	DRSC03059	4.65e7	3.75e7		2.12e7	1.73e7	inactive
71	CG12362	DRSC09884	1.45e7	2.32e7		8.64e6	1.14e7	inactive
72	CG32533	DRSC19443	4.00e7	4.18e7		1.73e7	1.67e7	inactive
73	CG32533	DRSC19553	4.15e7	4.44e7		2.29e7	2.07e7	inactive
74	CG11050	DRSC02125	4.53e7			3.04e7		inactive
75	Shawl	DRSC02209	4.04e7	6.00e7		1.92e7	2.53e7	inactive
76	Shawl	DRSC02748	3.85e7	6.29e7		1.83e7	2.75e7	inactive

Look-ups from the list:
Under “Call”, AstC-R1 [DRSC10799] reads inactive
For “calcium entry signal, replicate 2 (fluorescence units)”, CG32633 [DRSC18987] reads 2.53e7
Result for CG4891 [DRSC01936] under “resting calcium signal, replicate 1 (fluorescence units)”: 2.07e7
Value for CG31740 [DRSC01619] under “calcium entry signal, replicate 1 (fluorescence units)”: 3.53e7
aru [DRSC00802], Call: inactive
For “resting calcium signal, replicate 1 (fluorescence units)”, Rrp45 [DRSC20198] is entered as 1.45e7
